The values below come from publication PMC13424409.

Construct, isoform or probe ends are uncertain for at least one entry.

This data set has as its system MBP-NbNTL9 (Nicotiana benthamiana). Put plainly: EMSA. The note with it: unlabeled Pro-PR1-1 competes; Chemiluminescent EMSA Kit (Beyotime GS009), 20 or 50 nM biotinylated probe, 1-3 ug protein; pH and temperature not stated; recombinant protein; protein details: MBP (N-terminal); label: 3' biotin.

Consider “TAATGCTTTAGGTGGTGAAGTATAG (double strand) [Pro-PR1-1]”, for which the binding result is on record as “binds”.
